# Laboratory results from PMC7819943, “Rice protein-binding microarrays: a tool to detect cis-acting elements near promoter regions in rice”.
# The chains behind the UniProt entries cited, without tags or fusion partners.
# UniProt Q0JBA9, entry or part of it: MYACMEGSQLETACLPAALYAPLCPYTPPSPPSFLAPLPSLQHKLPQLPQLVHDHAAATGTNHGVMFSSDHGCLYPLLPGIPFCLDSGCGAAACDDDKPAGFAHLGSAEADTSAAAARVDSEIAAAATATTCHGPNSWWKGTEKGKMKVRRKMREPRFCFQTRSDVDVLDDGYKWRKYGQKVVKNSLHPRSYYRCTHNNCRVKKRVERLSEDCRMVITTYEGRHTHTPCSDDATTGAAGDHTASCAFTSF
# Some of the results follow.
# Molecular target: OsWRKY34 (Oryza sativa, UniProt Q0JBA9 1-250)
# Experiment: protein-binding microarray (RPBM); PBS, 2% BSA, 51.3 ng/ul salmon testes DNA, 50 uM zinc acetate, 200 nM TF, 25 C, 1 h; high values mean tight binding
# Conditions: protein: recombinant; tags: N-terminal polyhistidine and DsRed monomer fusion (pET32a); label: CyDye5-dUTP incorporated in the synthesized complementary strand; 3' TTTTT single-stranded linker to array surface; dsDNA, one strand shown
# Procedure, shortened: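 Binding signal is reported as fluorescence intensity per feature (arbitrary units) from an Axon 4000B scanner. Incubation used 200 nM of each Ni–NTA-purified, N-terminally polyhistidine- and DsRed-fused transcription factor from E. coli BL21-CodonPlus on a double-stranded custom Agilent array for 1 h at 25 °C, with 50 µM zinc acetate in the buffer, followed by washing.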
row,Sequence,binding signal
1,GTAAAGGTTTGGTAGGGGAGCAGGTAATGGATTGATTGCACGGAGTCACCTAGTGCAG,12100 fluorescence intensity (a.u.)
2,TGTTTATTTCGTTTTCCGCGCGCACGTTTCCCAAACTATTCGGAGTCACCTAGTGCAG,12500 fluorescence intensity (a.u.)
3,TGCATAACCATTTTTTTTCTCTAACGGCTTACAAGTTCTACGGAGTCACCTAGTGCAG,8230 fluorescence intensity (a.u.)
4,GGTTGGTGTGGACCTTGCCCATTGTGAAACTTTGGTCAAACGGAGTCACCTAGTGCAG,8070 fluorescence intensity (a.u.)
5,TGTTGGTTACTGGGCTTTCTTATTGATGTTTCAGGTTGATCGGAGTCACCTAGTGCAG,9150 fluorescence intensity (a.u.)
6,TTCGAAATGTTTAACGCCGTTGACTTTTTATCATATGTTTCGGAGTCACCTAGTGCAG,35500 fluorescence intensity (a.u.)
7,CTAACAGAACATCCATTTCACCACACCCACTTGTTCAATGCGGAGTCACCTAGTGCAG,11000 fluorescence intensity (a.u.)
8,TAAGTTGGAGGGTGCGTTCTATCCGGTCTTGTGGTCAACACGGAGTCACCTAGTGCAG,8040 fluorescence intensity (a.u.)
9,TTCTTCTCTGGTCTCCCCTGTGTGTTGCTGTTCTATTTCCCGGAGTCACCTAGTGCAG,9230 fluorescence intensity (a.u.)
10,ATTATGACTGGTTTTGGTTAGTTGGGTGACGCCGGATATCCGGAGTCACCTAGTGCAG,10600 fluorescence intensity (a.u.)
11,GCATCTCCATCTATATGCTCTATTTCAAGTCTATCACAATCGGAGTCACCTAGTGCAG,8660 fluorescence intensity (a.u.)
12,ATCTGTCATCCTTTCTTCCCTCTTGCTTTGATAGAAACAGCGGAGTCACCTAGTGCAG,11600 fluorescence intensity (a.u.)
13,TGTTCCTCGCGATTGCATTTTGGTTCCTTGTTCATATATGCGGAGTCACCTAGTGCAG,10700 fluorescence intensity (a.u.)
14,TCTCTCTTCTCTTGAGCATCCTTGTTGTGTTCTACACTTGCGGAGTCACCTAGTGCAG,8040 fluorescence intensity (a.u.)
15,CCCAACTTTCCCCTTTGCTACAGTAGCTCCTTCTTCTTCTCGGAGTCACCTAGTGCAG,11100 fluorescence intensity (a.u.)
16,GTCCGTGTGTTGGAGCAGTCGGTGCGTGGGTGGTGGTCTTCGGAGTCACCTAGTGCAG,10500 fluorescence intensity (a.u.)
17,AATTCGTATTTTTTTCCTTAACTCAATGTTACTACTACTTCGGAGTCACCTAGTGCAG,8750 fluorescence intensity (a.u.)
18,TGTGAGATCAGGGACTCTTTTACCATTTCTTTCTTGCTTTCGGAGTCACCTAGTGCAG,12600 fluorescence intensity (a.u.)
19,GACTTCTCTTCATCGTCCGCCTCCTCCGCCGATCACCGCGCGGAGTCACCTAGTGCAG,10900 fluorescence intensity (a.u.)
20,TCCTGCTCTAGCCACTCATACCACCTTTGTTTTGTTGTTTCGGAGTCACCTAGTGCAG,8050 fluorescence intensity (a.u.)
21,CTCTTGGACACTAGTTAAGCAAACAGTACATTTGTTTCGTCGGAGTCACCTAGTGCAG,8120 fluorescence intensity (a.u.)
22,CAAACCTTGGACCTATCATACTGGTGTCAAGCGTTTCTTCCGGAGTCACCTAGTGCAG,9490 fluorescence intensity (a.u.)
23,TTTTTTTTTCTTTTTTGAACTCTCTACGCGTCATTTTTTCCGGAGTCACCTAGTGCAG,8590 fluorescence intensity (a.u.)
24,CTCTGCAACCTGCCGTCACCGCCACTACTCAACTCCCTTTCGGAGTCACCTAGTGCAG,11100 fluorescence intensity (a.u.)
25,AGGAAGCAACCGGCCAGCCAGCGGTTTGGTTTGGTTTGACCGGAGTCACCTAGTGCAG,9200 fluorescence intensity (a.u.)
26,CTCTCCCACGCGCTCTCTCCTCCCTCAGCTCGCCCAAAAACGGAGTCACCTAGTGCAG,9140 fluorescence intensity (a.u.)
27,ATATCCCATTCCCACCATTGTTTCTTCCAAGCATATTATCCGGAGTCACCTAGTGCAG,11800 fluorescence intensity (a.u.)

row,Sequence,binding signal
1,ATTGTTTTTATAGGGGAGGGGAGGCGGGATCGAGCCCGGGCGGAGTCACCTAGTGCAG,15100 fluorescence intensity (a.u.)
2,GAACACCTGGTATGCTATACACATAATATGCTACTACAATCGGAGTCACCTAGTGCAG,8620 fluorescence intensity (a.u.)
3,GCAATTTTCGTTTTTGTCACCTGAACACATTGATCATTTTCGGAGTCACCTAGTGCAG,10200 fluorescence intensity (a.u.)
4,ACTGATTAAACTTTTTCACAAATCTGGTATCATTTTTATACGGAGTCACCTAGTGCAG,9090 fluorescence intensity (a.u.)
5,CATCACTACCAAATTCGGCTGATCATTCATGCTTTCCATTCGGAGTCACCTAGTGCAG,13600 fluorescence intensity (a.u.)
6,ACACACACAAACTTCCAACTTTTCTGTCGCATCGTTCCAACGGAGTCACCTAGTGCAG,9840 fluorescence intensity (a.u.)
7,CCGGATAATTGTCATTTCTCTGCCTTTTTTATACTAGTCCCGGAGTCACCTAGTGCAG,12100 fluorescence intensity (a.u.)
8,ATTTAGCTCTTGTATTTTTTTATATTAGTATTTTAATATACGGAGTCACCTAGTGCAG,8250 fluorescence intensity (a.u.)
9,AGCAGTACAGCCTTCGACCATCCTCACTCTGTTTCCACTTCGGAGTCACCTAGTGCAG,8680 fluorescence intensity (a.u.)
10,TGGTACCCGTCAAATGTCATCCATGTCGCTTCACTTTGCACGGAGTCACCTAGTGCAG,12800 fluorescence intensity (a.u.)
11,GGCTTTAGTGTTCAGTTAGGATGTGCGTACCCGCCCCTTCCGGAGTCACCTAGTGCAG,8770 fluorescence intensity (a.u.)
12,CACACAGCCGCCCTTGCCGACCGCCACCGCCGCAACCGCACGGAGTCACCTAGTGCAG,9780 fluorescence intensity (a.u.)
13,GACTAGCCCCGAGCATGCTTTCCTAGCCTCCTTCGTCCTTCGGAGTCACCTAGTGCAG,9000 fluorescence intensity (a.u.)
14,ATTTGAAAGATCAAATCTTATCATCCTCGTGTTTCTAATTCGGAGTCACCTAGTGCAG,8100 fluorescence intensity (a.u.)
15,ACAACCACAGGGCTCACCGGCCAGCAACACGTCGACAACCCGGAGTCACCTAGTGCAG,8260 fluorescence intensity (a.u.)
16,CTGCTCCCTATTCGTCCGCGACGGTTCGCCTTCCACTCCGCGGAGTCACCTAGTGCAG,9030 fluorescence intensity (a.u.)
17,CCGGCCGACTCTGTCGGTTTCGGTTTCGGGTTGTTTGTTTCGGAGTCACCTAGTGCAG,9610 fluorescence intensity (a.u.)
18,CACCGCTCTGCCTGGCTCCGCTTCCGCTGGCCGCCGTCCTCGGAGTCACCTAGTGCAG,9620 fluorescence intensity (a.u.)
19,GGTTGTTCCTTGTGTTGGATTTGGTACTCATACTCCTGAACGGAGTCACCTAGTGCAG,10600 fluorescence intensity (a.u.)
20,TATATATTTATTGTGCTTTTGTGTATGGGAGGGTGATATGCGGAGTCACCTAGTGCAG,9840 fluorescence intensity (a.u.)
21,CTAGACCTAACCTGGAAGCATTTCTCTGTTGTTCCGAAACCGGAGTCACCTAGTGCAG,10200 fluorescence intensity (a.u.)
22,TCCTCTCTGTGCCTGTGACCGCGATTTCTGAAATCTGTCCCGGAGTCACCTAGTGCAG,8690 fluorescence intensity (a.u.)
23,CATCCCATTTTAGGTGTTTTTTTATACAGTTCCTGTTCCTCGGAGTCACCTAGTGCAG,8220 fluorescence intensity (a.u.)
24,TTGTACGCATGATTTTTTTCTGGTTCTTTGATCTTTTAATCGGAGTCACCTAGTGCAG,9460 fluorescence intensity (a.u.)
25,CCCGATGGGATTCCGTGTATTAGTTTTTTCTGTTTGTTTGCGGAGTCACCTAGTGCAG,9230 fluorescence intensity (a.u.)
26,GTGTCTCTTTACTTTTGACAAATGTGGCTGGAAGTTCAATCGGAGTCACCTAGTGCAG,8640 fluorescence intensity (a.u.)
27,GGTCACAGTTTTTTTATGTATATCTCTTCTTTCCAGAAAACGGAGTCACCTAGTGCAG,9710 fluorescence intensity (a.u.)

# Some of the entries above, reformatted.
row | Sequence | binding signal
6 | ACACACACAAACTTCCAACTTTTCTGTCGCATCGTTCCAACGGAGTCACCTAGTGCAG | 9840 fluorescence intensity (a.u.)
16 | CTGCTCCCTATTCGTCCGCGACGGTTCGCCTTCCACTCCGCGGAGTCACCTAGTGCAG | 9030 fluorescence intensity (a.u.)
20 | TATATATTTATTGTGCTTTTGTGTATGGGAGGGTGATATGCGGAGTCACCTAGTGCAG | 9840 fluorescence intensity (a.u.)
